Measurements from paper doi:10.1101/2020.04.20.033787 (bioRxiv, 2020).

Assays:
[1] = target: T1, Swi4 (S. cerevisiae (endogenous in S288C BY4741 strains)) (UniProt P25302); test: co-IP
T1 sequence: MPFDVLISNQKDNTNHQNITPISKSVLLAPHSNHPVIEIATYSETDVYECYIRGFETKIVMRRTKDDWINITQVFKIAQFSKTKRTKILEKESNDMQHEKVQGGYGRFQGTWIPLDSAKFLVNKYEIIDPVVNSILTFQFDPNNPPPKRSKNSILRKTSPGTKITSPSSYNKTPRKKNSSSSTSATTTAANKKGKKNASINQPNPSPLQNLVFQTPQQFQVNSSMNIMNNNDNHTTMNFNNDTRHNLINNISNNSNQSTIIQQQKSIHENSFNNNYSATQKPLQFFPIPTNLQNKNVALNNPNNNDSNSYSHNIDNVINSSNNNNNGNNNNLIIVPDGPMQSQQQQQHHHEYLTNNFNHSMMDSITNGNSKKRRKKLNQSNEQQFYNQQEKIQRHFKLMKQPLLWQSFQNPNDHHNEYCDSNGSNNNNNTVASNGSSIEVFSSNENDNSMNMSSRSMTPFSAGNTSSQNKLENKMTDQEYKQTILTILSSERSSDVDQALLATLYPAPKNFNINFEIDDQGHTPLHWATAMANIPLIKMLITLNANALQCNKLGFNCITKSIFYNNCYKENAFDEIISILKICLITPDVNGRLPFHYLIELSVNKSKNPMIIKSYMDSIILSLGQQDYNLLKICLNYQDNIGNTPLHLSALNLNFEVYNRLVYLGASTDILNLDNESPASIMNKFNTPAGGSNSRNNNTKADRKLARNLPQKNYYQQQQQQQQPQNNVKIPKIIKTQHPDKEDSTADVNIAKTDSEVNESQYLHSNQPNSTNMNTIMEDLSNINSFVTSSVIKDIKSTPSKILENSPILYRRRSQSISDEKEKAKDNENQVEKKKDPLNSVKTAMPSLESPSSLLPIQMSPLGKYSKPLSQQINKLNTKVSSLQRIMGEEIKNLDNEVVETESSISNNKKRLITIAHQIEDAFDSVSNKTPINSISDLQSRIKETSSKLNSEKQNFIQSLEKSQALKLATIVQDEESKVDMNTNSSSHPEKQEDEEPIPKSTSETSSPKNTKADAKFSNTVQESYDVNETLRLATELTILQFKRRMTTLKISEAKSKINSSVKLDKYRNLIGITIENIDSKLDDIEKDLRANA

[2] = target: T2, Swi6 (S. cerevisiae (endogenous in S288C BY4741 strains)) (UniProt P09959); test: co-IP
T2 sequence: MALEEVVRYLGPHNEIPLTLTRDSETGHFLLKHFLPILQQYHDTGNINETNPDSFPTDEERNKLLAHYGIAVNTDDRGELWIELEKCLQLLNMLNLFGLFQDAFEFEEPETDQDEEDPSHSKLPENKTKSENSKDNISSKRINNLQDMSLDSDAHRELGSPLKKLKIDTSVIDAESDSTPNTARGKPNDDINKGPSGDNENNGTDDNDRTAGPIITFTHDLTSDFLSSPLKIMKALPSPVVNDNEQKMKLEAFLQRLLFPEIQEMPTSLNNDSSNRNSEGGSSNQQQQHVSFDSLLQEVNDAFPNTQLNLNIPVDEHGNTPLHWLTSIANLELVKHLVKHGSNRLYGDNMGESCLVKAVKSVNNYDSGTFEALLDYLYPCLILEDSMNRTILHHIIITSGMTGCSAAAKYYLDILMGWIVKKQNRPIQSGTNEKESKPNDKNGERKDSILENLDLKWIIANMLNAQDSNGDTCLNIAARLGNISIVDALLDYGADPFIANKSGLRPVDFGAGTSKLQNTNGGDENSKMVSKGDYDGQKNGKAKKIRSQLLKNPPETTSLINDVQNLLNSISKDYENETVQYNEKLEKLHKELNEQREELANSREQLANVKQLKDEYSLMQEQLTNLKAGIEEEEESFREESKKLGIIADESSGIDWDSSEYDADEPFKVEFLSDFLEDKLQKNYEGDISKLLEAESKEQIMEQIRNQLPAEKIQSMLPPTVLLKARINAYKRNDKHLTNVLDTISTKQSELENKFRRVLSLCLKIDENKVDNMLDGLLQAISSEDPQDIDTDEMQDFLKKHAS

In the case of “fast-migrating form of Nrs1^13MYC (S. cerevisiae)”, the binding [1] is reported as “no binding” and the binding [2] is reported as “no binding”.

No constants are given. Whether binding was seen depends on the method and setting. In cells and extracts the contact can be indirect.
